Data published in PubChem BioAssay AID488837 (National Center for Advancing Translational Sciences (NCATS), 2010).
Out of some 330,000 compounds screened, about 20 (0.006%) were called active. This list was built around the results that the source calls inconclusive (neither active nor inactive); the mix of calls is not that of the screen. Calls follow the shape of the dose curve; as a rule, active = well fitted inhibition curve with a large enough effect; inconclusive = small, poorly fitted or top-dose-only effect, or effect the other way; inactive = flat fitted curve, though single readings scatter. Potencies of inconclusive entries are doubtful fits and often do not repeat.

The chains behind the UniProt entries cited, without tags or fusion partners. Where a name states a change or a piece, a line headed by the entry shows the natural chain unless it says otherwise.
UniProt O00167: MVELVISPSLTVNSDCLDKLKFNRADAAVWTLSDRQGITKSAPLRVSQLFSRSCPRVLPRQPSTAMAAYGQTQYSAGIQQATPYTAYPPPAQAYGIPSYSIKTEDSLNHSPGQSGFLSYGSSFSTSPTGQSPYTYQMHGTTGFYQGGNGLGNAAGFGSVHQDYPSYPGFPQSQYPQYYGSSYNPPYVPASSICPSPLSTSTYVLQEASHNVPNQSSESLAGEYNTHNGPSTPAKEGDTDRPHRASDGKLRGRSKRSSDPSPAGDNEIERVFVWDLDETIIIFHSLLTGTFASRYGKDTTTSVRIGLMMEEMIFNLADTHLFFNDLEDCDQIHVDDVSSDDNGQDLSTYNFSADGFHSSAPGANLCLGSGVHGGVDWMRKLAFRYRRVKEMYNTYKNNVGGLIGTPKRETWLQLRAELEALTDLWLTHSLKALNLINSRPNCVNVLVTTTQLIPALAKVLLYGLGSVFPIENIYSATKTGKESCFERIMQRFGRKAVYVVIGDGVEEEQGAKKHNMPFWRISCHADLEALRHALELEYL

molecular target: Protein phosphatase EYA2 (Homo sapiens) (UniProt O00167); experiment: qHTS Assay for Inhibitors of the Phosphatase Activity of Eya2; conditions: recombinant Eya2, OMFP fluorescence dephosphorylation (OMFP is methylfluorescein phosphate)
Outline: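 Eya2 (0.2 uM) preincubated 10 min at ambient with compound, then OMFP substrate added at 50 uM; 10 min reaction in 50 mM HEPES pH 7.5, 50 mM NaCl, 5 uM MgCl2, 0.05% BSA, 1 mM DTT. Fluorescence read at Ex 485/Em 525 nm.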
Potency is read from the fitted curve at half-maximal effect.

With `C=CCN(CC=C)C(=O)c1ccc(OC2CCN(S(=O)(=O)N(C)C)CC2)cc1` as the compound, how does the Potency read?
The Potency was “inactive”.

With `COc1ccc(C(C(=O)NC(C)(C)C)N(C(=O)CCC(=O)Nc2cc(C)on2)c2cccc(F)c2)cc1` (stereo unspecified) as the compound, how does the Potency read?
The Potency was inconclusive: 3980 µM [inhibitor, partial curve, poor fit].

With `CCCCCCCCCCCC(=O)N1CC(=O)NC(=O)C1` as the compound, how does the Potency read?
Its Potency is inconclusive: 100 µM [inhibitor, partial curve, poor fit].

`CCCCc1cc(=O)oc2cc(C)cc(OCC(=O)N3C[C@H]4C[C@@H](C3)c3cccc(=O)n3C4)c12` was tested. Which Potency did it give?
The Potency was inconclusive: 100 µM [inhibitor, single point].

How did the Potency turn out when `O=C(CSC1=NCCS1)Nc1nc2c(s1)CCCC2` was run?
The Potency was inconclusive: 100 µM [inhibitor, single point].

With `COc1ccc(S(=O)(=O)N2CCOCC2)cc1NC(=O)CSc1nnc2n1CCCCC2` as the compound, how does the Potency read?
Its Potency is “inactive”.

With `NC(=O)c1ccc(Oc2ccc3c(c2)CCC3)c([N+](=O)[O-])c1` as the compound, how does the Potency read?
Its Potency is inconclusive: 22.4 µM [inhibitor, single point].

`CCn1c(SCC(=O)OC)nnc1-c1ccc(C)cc1` was tested. Which Potency did it give?
The Potency was inconclusive: 20 µM [inhibitor, single point].

For `O=C(CSc1nc2ccccc2nc1N1CCCC1)Nc1ccc(Cl)cc1`, which Potency is on record?
Its Potency is inconclusive: 70.8 µM [inhibitor, partial curve, poor fit].

`Cc1c2cnn(CC(=O)NCCN3CCOCC3)c(=O)c2c(C)n1Cc1ccccc1` was tested. Which Potency did it give?
Its Potency is inconclusive: 22.4 µM [inhibitor, single point].

Which Potency does the source give for `Cc1ccc2cc(-c3noc(C(C)(C)C)n3)c(=O)[nH]c2c1` here?
Its Potency is “inactive”.

`CCCN1C(=O)/C(=C\C=C2\N(CC)c3ccccc3C2(C)C)SC1=S` was tested. Which Potency did it give?
Its Potency is “inactive”.

How did the Potency turn out when `C[n+]1ccc(/C=N/Nc2nc(Cl)c(C#N)c(Cl)c2Cl)cc1` was run?
Its Potency is “inactive”.

With `O=C(c1ccc(F)cc1)c1cc2ccc(O)cc2oc1=O` as the compound, how does the Potency read?
The Potency was “inactive”.

For `CNC(=O)COC(=O)c1ccc2c(c1)NC(=O)C1CCCN21` (stereo unspecified), which Potency is on record?
The Potency was inconclusive: 70.8 µM [inhibitor, single point].

`CN(C)S(=O)(=O)c1cccc(NC(=S)N/N=C/c2cccc(O)c2)c1` was tested. Which Potency did it give?
Its Potency is inconclusive: 22.4 µM [inhibitor, single point].

Which Potency does the source give for `C=CCSC1=Nc2sccc2C2=NC(=O)CN12` here?
Its Potency is inconclusive: 28.2 µM [inhibitor, single point].

For `COc1cc(C)c(C(C)C)cc1S(=O)(=O)NC1CC(C)(C)NC(C)(C)C1`, which Potency is on record?
Its Potency is inconclusive: 100 µM [inhibitor, single point].

For `COc1ccc(/C=C/C(=O)N(Cc2cccs2)C2CCS(=O)(=O)C2)cc1` (stereo unspecified), which Potency is on record?
Its Potency is inconclusive: 100 µM [inhibitor, single point].

How did the Potency turn out when `CCOC(=O)c1oc2nc(C(C)C)c3c(c2c1N)CC(C)(C)OC3` was run?
The Potency was “inactive”.

With `O=C(COc1ccc(F)cc1Br)NCC1(N2CCOCC2)CCCCC1` as the compound, how does the Potency read?
Its Potency is inconclusive: 100 µM [inhibitor, single point].

With `COc1cc(C=O)ccc1OS(=O)(=O)c1ccccc1[N+](=O)[O-]` as the compound, how does the Potency read?
The Potency was “inactive”.

For `CCCn1c(C)cc(C(=O)COc2ccc(-c3nnco3)cc2)c1C`, which Potency is on record?
The Potency was inconclusive: 20 µM [inhibitor, single point].

Which Potency does the source give for `O=C(NCCN1CCN(c2ccccc2)CC1)Nc1cccc(Br)c1` here?
Its Potency is inconclusive: 70.8 µM [inhibitor, partial curve].

How did the Potency turn out when `COc1ccc(-c2cc(C(F)(F)F)c3c(N)c(C(=O)NCCSC)sc3n2)cc1` was run?
Its Potency is inconclusive: 28.2 µM [inhibitor, single point].

With `C/C(Cn1nnc([N+](=O)[O-])n1)=N\NC(=O)c1ccc(O)cc1O` as the compound, how does the Potency read?
The Potency was “inactive”.

For `CC[n+]1ccc(/C=C/c2ccc(N(C)C)cc2)c2ccccc21`, which Potency is on record?
The Potency was “inactive”.

For `COc1ccc(NC2=NC3(CCCCC3)N=C(N)N2)cc1`, which Potency is on record?
The Potency was “inactive”.

For `Cc1ccc(CSC2=CS(=O)(=O)c3ccccc3N2)cc1`, which Potency is on record?
Its Potency is inconclusive: 22.4 µM [inhibitor, single point].

`CCCCCCCC/C=C\CCCCCCCC(=O)NCCc1ccc(O)c(O)c1` was tested. Which Potency did it give?
Its Potency is inconclusive: 100 µM [inhibitor, single point].

How did the Potency turn out when `COC(=O)c1oc2c(c1C)C(=O)CCC2` was run?
The Potency was inconclusive: 25.1 µM [inhibitor, single point].

`O=S(=O)(c1ccccc1)N(Cc1ccccc1)c1ccccn1` was tested. Which Potency did it give?
The Potency was “inactive”.

With `CN(C)C(CNC(=O)c1coc2ccccc2c1=O)c1ccccc1` (stereo unspecified) as the compound, how does the Potency read?
The Potency was inconclusive: 28.2 µM [inhibitor, partial curve].

For `CCN(CC)CCNC(=O)/C(=N\O)c1ccccn1`, which Potency is on record?
The Potency was inconclusive: 22.4 µM [inhibitor, single point].

`O=C(Cc1ccccc1F)NC1CCCN(Cc2ccc(Cl)cc2)C1` (stereo unspecified) was tested. Which Potency did it give?
The Potency was inconclusive: 15.8 µM [inhibitor, partial curve, poor fit].

Which Potency does the source give for `COc1cccc(/C=N/NC(=O)CCC(=O)Nc2ccc(Br)cc2)c1` here?
The Potency was “inactive”.

With `COC(=O)c1ccc(C(=O)OC)c(=O)[nH]1` as the compound, how does the Potency read?
Its Potency is inconclusive: 100 µM [inhibitor, single point].

Which Potency does the source give for `Cc1ccc(Nc2nc(N)nc(CSc3ncccn3)n2)cc1` here?
Its Potency is inconclusive: 12.6 µM [inhibitor, partial curve].

How did the Potency turn out when `CCc1cc(C)cc(OCCNC(=O)c2cncc(Br)c2)c1` was run?
Its Potency is inconclusive: 100 µM [inhibitor, single point].

Which Potency does the source give for `COC(=O)CNC(=O)c1cccc(Cl)c1` here?
Its Potency is “inactive”.

Which Potency does the source give for `O=C1C2CC=CCC2C(=O)N1c1ccc(N2CCN(c3ccccn3)CC2)c([N+](=O)[O-])c1` (stereo unspecified) here?
The Potency was “inactive”.

How did the Potency turn out when `Nc1ccccc1Oc1c(F)c(F)c(Oc2ccccc2N)c(F)c1F` was run?
Its Potency is inconclusive: 141 µM [inhibitor, single point].

`COc1ccc(C(=O)CC(=O)C(=O)Nc2ccc(OC)c(Cl)c2)cc1` was tested. Which Potency did it give?
The Potency was inconclusive: 708 µM [inhibitor, partial curve].

For `COc1ccc(Nc2nc(N)nc(CSC(=S)N3CCCCC3C)n2)cc1` (stereo unspecified), which Potency is on record?
The Potency was inconclusive: 100 µM [inhibitor, single point].

Which Potency does the source give for `Cc1oc2c(c(C)cc3oc(=O)c(CC(=O)N[C@H](C(=O)O)C(C)C)c(C)c32)c1C` here?
The Potency was inconclusive: 100 µM [inhibitor, single point].

With `CCN(C(=O)COC(=O)C1CCN(S(=O)(=O)c2cccs2)CC1)c1ccccc1` as the compound, how does the Potency read?
The Potency was “inactive”.
